Source: patent publication US20220146526A1, “METHOD FOR EVALUATING SAMPLE, ANALYSIS METHOD, METHOD FOR DETECTING DEGRADED SAMPLE, MARKER FOR DETECTING DEGRADED BLOOD PLASMA SAMPLE, AND MARKER FOR DETECTING DEGRADED SERUM SAMPLE” (SHIMADZU CORPORATION, priority 2019, published 2022)
At least one compound was matched to its structure with a doubt left.

How the values were obtained:
Format in all cases: physicochemical, human
[1] = GC/MS of serum sample: number of times of freezing and thawing (Table I); parameters: key to Rate of increase or decrease: detection intensity relative to 2 freeze-thaw cycles = 1; details: for Rate of increase or decrease: 10 times of freezing and thawing, detection intensity relative to 1 at 2 times; for Number of times when compound is affected / Increase or decrease: serum sample, GC/MS; for Number of times when compound is affected: detection intensity changed by 30% or more vs 2 times of freezing and thawing; for Increase or decrease: detection intensity vs 2 times of freezing and thawing
Experimental: After standing, the blood sample was subjected to centrifugation under a condition of room temperature, 3500 rpm, and 5 minutes. […] After centrifugation, the blood-collecting vessel was left to stand at room temperature, and the serum was isolated during this time. Here, in order to investigate how the detection intensity of molecules contained in the sample was affected in cases where the time during which the blood-collecting vessel was left at room temperature was set to 1 hour and 6 hours as compared to that in a case where the time was set to 30 minutes, preparations were performed under the respective conditions of 30 minutes, 1 hour, and 6 hours. The obtained serum sample was frozen and stored. Here, in order to investigate how the detection intensity of molecules contained in the sample was affected in cases where freezing and thawing was performed 4 times, 6 times, and 10 times after freezing as compared to that in a case where freezing and thawing was performed 2 times after freezing, freezing and thawing was performed under the respective conditions of 2, 4, 6, and 10 times.
(§1) Frozen blood plasma samples and serum samples were subjected to GC/MS or LC/MS. In GC/MS, the blood plasma samples and serum samples were subjected to methoxymation and trimethylsilylation and then introduced to GC-MS.
GC/MS was conducted using GCMS·TQ8040 (Shimadzu Corporation) that was a GC·MS equipped with AOC·20i (Shimadzu Corporation) as an autosampler.
Column: BPX5 (inner diameter of 0.25 mm, length of 30 m, and film thickness of 0.25 μm) (SGE)
Column temperature: maintained at 60° C. for 2 minutes, then raised at 15° C./min, and maintained at 330° C. for 3 minutes.
Inlet temperature: 250° C.
Carrier gas control mode: constant linear velocity of 39.0 cm/sec
Sample introduction method: split (split ratio of 30:1) Injection volume: 1 μL
Ionization method: electron ionization
Ionization current: 60 μA
Interface temperature: 280° C.
Ion source temperature: 200° C.
(§2) Mode: multiple reaction monitoring (MRM)
The rate of increase or decrease in Table I is the value of detection intensity relative to 1 that is the detection intensity in a case where the number of times of freezing and thawing is set to 2 times.

[2] = LC/MS of blood plasma sample: number of times of freezing and thawing (Table F)
Experimental: (§3) At room temperature, 5 mL of blood from a healthy subject was taken into a blood-collecting vessel containing EDTA, and the blood-collecting vessel was inverted for mixing, then cooled, and allowed to stand at 4° C. Here, in order to investigate how the detection intensity of molecules contained in the sample was affected in a case where the time to cooling was set to 5 minutes or more as compared to that in a case where the time to cooling was set to 1 minute or less, preparations were performed under both the former condition and the latter condition. After standing, the blood sample was subjected to centrifugation under a condition of 4° C., 3000 rpm, and 15 minutes. […] After centrifugation, the blood-collecting vessel was left to stand at room temperature for 30 minutes, and the blood plasma was isolated during this 30 minutes. The obtained blood plasma sample was frozen and stored. Here, in order to investigate how the detection intensity of molecules contained in the sample was affected in cases where freezing and thawing was performed 4 times, 6 times, and 10 times after freezing as compared to that in a case where freezing and thawing was performed 2 times after freezing, freezing and thawing was performed under the respective conditions of 2, 4, 6, and 10 times.
(§4) Frozen blood plasma samples and serum samples were subjected to GC/MS or LC/MS. […]

[3] = LC/MS of blood plasma sample: time from blood collection to cooling of blood (Table E); parameters: key to Rate of increase or decrease (first value, increase): detection intensity relative to ≤1 min to cooling = 1
Experimental: as §3, §1
(§5) Analysis column: Discovery HS F5-3 (inner diameter of 2.1 mm, length of 150 mm, film thickness of 3 μm) (Sigma-Aldrich)
(§6) Column temperature: 40° C.
(§7) (A) 0.1% formic acid (dissolved in water)
(§8) (B) 0.1% formic acid (dissolved in acetonitrile)
(§9) Flow velocity: 0.25 mL/min
(§10) Ionization method: electrospray
(§11) Temperature: • Desolvation Line (DL) temperature: 250° C. • Heat block temperature: 400° C. • Interface temperature: 300° C.
(§12) Gas flow rate: • Nebulizer gas flow rate: 3.0 L/min • Drying gas flow rate: 10.0 L/min • Heating gas flow rate: 10.0 L/min
Mode: multiple reaction monitoring (MRM) […]

[4] = LC/MS of blood plasma sample: time from blood collection to centrifugation (Table D); details: for Increase or decrease: detection intensity
Experimental: as §3, §1, §5, §6, §7, §8, §9, §10, §11, §12, §2
The rate of increase or decrease in Table D is the value of detection intensity relative to 1 that is the detection intensity in a case where the time from blood collection to centrifugation is set to 15 minutes.

[5] = GC/MS of blood plasma sample: number of times of freezing and thawing (Table C)
Experimental: as §3, §4

[6] = GC/MS of blood plasma sample: time from blood collection to cooling of blood (Table B); parameters: key to Rate of increase or decrease: detection intensity relative to 1 at cooling time ≤1 min
Experimental: as §3, with “Here, in order to investigate how the detection intensity of molecules contained in the sample was affected in cases where freezing and thawing was performed 4 times, 6 times, and 10 times after freezing as compared to that in a case where freezing and thawing was performed 2 times after freezing, freezing and thawing was performed under the respective conditions of 2, 4, 6, and 10 times.” left out
Table B presents compounds of which the detection intensity increased or decreased by 30% or more in a case where the time from blood collection to cooling of blood, when a blood plasma sample was analyzed by GC/MS, was set to 5 minutes or more as compared to that in a case where the time was set to 1 minute or less. […]

[7] = GC/MS of blood plasma sample: time from blood collection to centrifugation (Table A)
Experimental: as §3, §4

[8] = detection intensity, blood collection to cooling 5 minutes or more vs 1 minute or less

Which “Rate of increase or decrease” value [1] does the source give for `CC/C=C\C/C=C\C/C=C\C/C=C\C/C=C\CCCC(=O)O` [Eicosapentaenoic acid, eicosapentaenoic acid] here?
The value was 1.51.

And the “Number of times when compound is affected” value [1]?
Its value is 10 times.

And the Increase or decrease [1]?
The Increase or decrease was “Increase”.

With `C[N+](C)(C)CCOP(=O)(O)OP(=O)([O-])OC[C@H]1O[C@@H](n2ccc(N)nc2=O)[C@H](O)[C@@H]1O` [Citicoline] as the molecule, how does the Increase or decrease ([2]; detection intensity, freezing and thawing 6 times vs 2 times) read?
Its Increase or decrease is “Different from individual”.

What about the “Rate of increase or decrease (second value, decrease)” value ([2]; different from individual to individual, individuals with decrease, relative to 1 at 2 times, freezing and thawing 6 times) of the same molecule?
Its value is 0.62.

And the Increase or decrease [3, 8]?
The Increase or decrease was “Different from individual”.

And the “Rate of increase or decrease (second value, decrease)” value ([3]; different from individual to individual, individuals with decrease, relative to 1 at 1 minute or less, collection to cooling 5 minutes)?
The value was 0.38.

And the “Rate of increase or decrease (first value, increase)” value ([3]; different from individual to individual, individuals with increase, relative to 1 at 1 minute or less, collection to cooling 5 minutes)?
Its value is 1.48.

And the “Rate of increase or decrease” value ([4]; detection intensity relative to 1 at 15 minutes, blood collection to centrifugation, after 4 hours)?
The value was 1.55.

And the Increase or decrease ([4]; blood collection to centrifugation, after 4 hours vs 15 minutes)?
The Increase or decrease was “Increase”.

With `CN1CC(=O)NC1=N` [Creatinine] as the molecule, how does the “Rate of increase or decrease” value ([5]; detection intensity relative to 1 at 2 times, freezing and thawing 10 times) read?
The value was 1.43.

And the Increase or decrease ([5]; detection intensity, freezing and thawing 10 times vs 2 times)?
The Increase or decrease was “Increase”.

And the Increase or decrease ([4]; blood collection to centrifugation, after 12 hours vs 15 minutes)?
Its Increase or decrease is “Different from individual”.

What about the “Rate of increase or decrease (second value, decrease)” value ([4]; different from individual to individual, individuals with decrease, relative to 1 at 15 minutes, collection to centrifugation, after 12 hours) of the same molecule?
Its value is 0.65.

What about the “Rate of increase or decrease (first value, increase)” value ([4]; different from individual to individual, individuals with increase, relative to 1 at 15 minutes, collection to centrifugation, after 12 hours) of the same molecule?
The value was 1.59.

For `CC/C=C\C/C=C\C/C=C\C/C=C\C/C=C\C/C=C\CCC(=O)O` [Docosahexaenoic acid], which “Rate of increase or decrease” value ([6]; detection intensity relative to 1 at 1 minute or less, blood collection to cooling 5 minutes) is on record?
Its value is 1.38.

What about the Increase or decrease [6, 8] of the same molecule?
The Increase or decrease was “Increase”.

And the “Rate of increase or decrease” value ([7]; detection intensity relative to 1 at 15 minutes, after 8 hours)?
The value was 1.48.

And the Increase or decrease ([7]; detection intensity, after 8 hours vs 15 minutes)?
The Increase or decrease was “Increase”.

What about the “Rate of increase or decrease” value [1] of the same molecule?
Its value is 1.58.

What about the “Number of times when compound is affected” value [1] of the same molecule?
Its value is 10 times.

What about the Increase or decrease [1] of the same molecule?
Its Increase or decrease is “Increase”.
